No constants are given. Whether binding was seen depends on the method and setting. In cells and extracts the contact can be indirect. Some results given as binding are weak or reduced against the parent protein; the word gives no strength. Where a sequence is shown, tags or fusion partners need not be part of it.
Key:
[1] = target: inositol-1,4,5-trisphosphate receptor 1 (IP3R1), endogenous (human (endogenous in HEK293)) (UniProt Q14643); assay: co-IP; HEK293 lysate; endogenous IP3R1 precipitated with goat anti-IP3R1 antibodies, in Nonidet P-40 buffer with 0.5% Triton X-100 added; also done after EXOC1 knockdown (interaction decreased)
GFP-EXOC1 [2] = target: GFP-EXOC1 (UniProt Q9NV70); assay: co-IP; subcellular fractionation of transfected HEK293 cells followed by co-immunoprecipitation; 400 μg of ER and 1 mg of cytosolic protein preparations
GFP-EXOC1 [3] = target: GFP-EXOC1 (UniProt Q9NV70); assay: co-IP; transfected HEK293 cells, lysed by sonication in Nonidet P-40 lysis buffer (50 mM Tris pH 8.0, 150 mM NaCl, 1% NP-40, 5 mM EDTA); antibody 10-15 h at 4°C, protein-A agarose

Protein sequences, listed by entry. Tags and fused reporters are not part of them.
UniProt Q14643: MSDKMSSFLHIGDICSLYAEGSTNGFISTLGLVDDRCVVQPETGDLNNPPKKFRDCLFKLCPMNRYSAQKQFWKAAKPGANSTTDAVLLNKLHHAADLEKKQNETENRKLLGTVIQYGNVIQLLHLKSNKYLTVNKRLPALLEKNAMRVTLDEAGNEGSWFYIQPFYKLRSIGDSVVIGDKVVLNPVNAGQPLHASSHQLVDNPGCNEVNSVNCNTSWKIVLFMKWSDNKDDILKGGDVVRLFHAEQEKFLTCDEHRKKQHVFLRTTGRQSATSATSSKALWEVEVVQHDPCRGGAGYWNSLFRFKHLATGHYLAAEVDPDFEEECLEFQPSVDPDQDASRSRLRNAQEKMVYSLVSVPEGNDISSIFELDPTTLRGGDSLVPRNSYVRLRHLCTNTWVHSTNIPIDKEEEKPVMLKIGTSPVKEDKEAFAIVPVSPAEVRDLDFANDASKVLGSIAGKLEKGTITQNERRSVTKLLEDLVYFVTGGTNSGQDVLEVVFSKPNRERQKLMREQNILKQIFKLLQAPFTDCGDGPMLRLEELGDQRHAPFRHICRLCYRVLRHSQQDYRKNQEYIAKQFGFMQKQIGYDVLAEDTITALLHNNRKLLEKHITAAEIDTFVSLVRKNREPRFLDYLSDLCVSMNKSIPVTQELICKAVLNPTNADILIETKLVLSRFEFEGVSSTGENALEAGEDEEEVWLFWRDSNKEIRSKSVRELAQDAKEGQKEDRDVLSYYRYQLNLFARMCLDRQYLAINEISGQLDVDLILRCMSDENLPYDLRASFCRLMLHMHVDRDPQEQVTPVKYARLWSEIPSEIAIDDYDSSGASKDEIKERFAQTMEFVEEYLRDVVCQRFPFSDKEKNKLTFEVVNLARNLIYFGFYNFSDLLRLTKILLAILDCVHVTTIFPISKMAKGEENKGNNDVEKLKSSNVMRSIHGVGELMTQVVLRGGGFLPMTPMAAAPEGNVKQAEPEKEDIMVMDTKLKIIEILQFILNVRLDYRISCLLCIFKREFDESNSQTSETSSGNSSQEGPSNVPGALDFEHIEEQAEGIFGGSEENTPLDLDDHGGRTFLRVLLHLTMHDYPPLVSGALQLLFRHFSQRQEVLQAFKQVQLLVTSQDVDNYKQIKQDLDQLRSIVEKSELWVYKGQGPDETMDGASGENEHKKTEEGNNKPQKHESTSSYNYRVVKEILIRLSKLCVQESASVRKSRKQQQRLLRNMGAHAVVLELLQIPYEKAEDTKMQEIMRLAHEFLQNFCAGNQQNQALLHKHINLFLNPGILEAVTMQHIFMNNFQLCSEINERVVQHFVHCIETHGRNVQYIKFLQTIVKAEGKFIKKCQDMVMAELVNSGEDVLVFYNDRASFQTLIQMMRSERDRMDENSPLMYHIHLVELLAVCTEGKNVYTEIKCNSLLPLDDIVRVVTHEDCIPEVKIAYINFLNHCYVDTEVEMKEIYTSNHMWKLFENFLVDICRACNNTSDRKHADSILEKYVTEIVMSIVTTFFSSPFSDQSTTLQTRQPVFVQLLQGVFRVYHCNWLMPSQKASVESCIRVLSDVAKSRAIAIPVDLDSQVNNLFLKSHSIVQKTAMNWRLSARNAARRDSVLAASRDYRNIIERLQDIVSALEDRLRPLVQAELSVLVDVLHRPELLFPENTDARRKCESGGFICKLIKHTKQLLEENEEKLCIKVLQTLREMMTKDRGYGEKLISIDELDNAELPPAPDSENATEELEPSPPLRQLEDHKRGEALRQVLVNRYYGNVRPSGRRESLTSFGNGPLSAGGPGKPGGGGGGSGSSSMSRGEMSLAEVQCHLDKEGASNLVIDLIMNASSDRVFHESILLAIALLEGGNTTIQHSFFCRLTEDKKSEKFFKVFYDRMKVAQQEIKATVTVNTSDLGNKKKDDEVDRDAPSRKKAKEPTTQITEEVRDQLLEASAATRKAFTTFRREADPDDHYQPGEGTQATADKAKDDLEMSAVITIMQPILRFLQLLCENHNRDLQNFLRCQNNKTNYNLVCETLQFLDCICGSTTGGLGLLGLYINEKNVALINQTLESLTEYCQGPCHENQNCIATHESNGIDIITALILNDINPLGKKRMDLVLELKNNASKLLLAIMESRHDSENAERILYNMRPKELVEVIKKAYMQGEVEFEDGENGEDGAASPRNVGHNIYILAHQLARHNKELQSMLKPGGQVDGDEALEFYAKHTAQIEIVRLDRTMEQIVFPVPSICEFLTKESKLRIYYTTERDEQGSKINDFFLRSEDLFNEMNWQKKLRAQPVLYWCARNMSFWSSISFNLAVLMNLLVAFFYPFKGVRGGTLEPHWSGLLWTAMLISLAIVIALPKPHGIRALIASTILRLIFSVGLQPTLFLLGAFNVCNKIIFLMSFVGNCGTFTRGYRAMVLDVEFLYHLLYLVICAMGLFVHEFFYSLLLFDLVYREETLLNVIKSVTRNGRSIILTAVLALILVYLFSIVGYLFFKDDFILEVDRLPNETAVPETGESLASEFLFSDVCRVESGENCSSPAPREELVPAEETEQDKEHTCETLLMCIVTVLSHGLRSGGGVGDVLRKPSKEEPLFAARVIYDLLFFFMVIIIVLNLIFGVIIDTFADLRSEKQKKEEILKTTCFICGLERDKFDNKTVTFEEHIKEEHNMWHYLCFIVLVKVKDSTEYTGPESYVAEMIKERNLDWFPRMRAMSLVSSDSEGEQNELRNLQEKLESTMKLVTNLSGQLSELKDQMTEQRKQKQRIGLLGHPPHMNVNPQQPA
UniProt Q9NV70: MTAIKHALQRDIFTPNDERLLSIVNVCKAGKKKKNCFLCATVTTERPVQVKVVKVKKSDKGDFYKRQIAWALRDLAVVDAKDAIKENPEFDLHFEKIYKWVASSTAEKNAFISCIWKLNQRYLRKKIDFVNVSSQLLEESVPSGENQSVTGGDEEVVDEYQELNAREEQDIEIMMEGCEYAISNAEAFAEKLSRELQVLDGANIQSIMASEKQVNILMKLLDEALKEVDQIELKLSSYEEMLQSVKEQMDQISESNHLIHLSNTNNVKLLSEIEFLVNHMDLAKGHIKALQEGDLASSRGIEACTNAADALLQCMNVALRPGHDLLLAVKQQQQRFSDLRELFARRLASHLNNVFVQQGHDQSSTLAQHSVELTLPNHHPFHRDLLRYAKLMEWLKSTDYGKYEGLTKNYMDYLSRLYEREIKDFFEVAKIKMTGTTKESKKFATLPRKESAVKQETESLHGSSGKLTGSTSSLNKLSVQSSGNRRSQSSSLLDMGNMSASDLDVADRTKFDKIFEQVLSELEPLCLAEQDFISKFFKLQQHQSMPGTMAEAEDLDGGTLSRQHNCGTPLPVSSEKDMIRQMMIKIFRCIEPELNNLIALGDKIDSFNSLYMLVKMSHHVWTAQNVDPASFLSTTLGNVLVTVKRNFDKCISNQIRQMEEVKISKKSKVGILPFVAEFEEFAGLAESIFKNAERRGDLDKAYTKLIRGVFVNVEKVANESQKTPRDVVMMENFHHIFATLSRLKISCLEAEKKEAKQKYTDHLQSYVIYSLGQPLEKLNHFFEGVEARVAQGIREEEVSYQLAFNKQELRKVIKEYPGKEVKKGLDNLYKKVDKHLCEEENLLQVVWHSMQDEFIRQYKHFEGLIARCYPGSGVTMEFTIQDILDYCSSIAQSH

binding [1] | binding (GFP-EXOC1 [2]) | binding (GFP-EXOC1 [3]) | Binder
binds | binds | binds | Flag-DISC1 (Disrupted-in-schizophrenia-1) (protein, UniProt Q9NRI5 1-854) MPGGGPQGAPAAAGGGGVSHRAGSRDCLPPAACFRRRRLARRPGYMRSSTGPGIGFLSPAVGTLFRFPGGVSGEESHHSESRARQCGLDSRGLLVRSPVSKSAAAPTVTSVRGTSAHFGIQLRGGTRLPDRLSWPCGPGSAGWQQEFAAMDSSETLDASWEAACSDGARRVRAAGSLPSAELSSNSCSPGCGPEVPPTPPGSHSAFTSSFSFIRLSLGSAGERGEAEGCPPSREAESHCQSPQEMGAKAASLDGPHEDPRCLSRPFSLLATRVSADLAQAARNSSRPERDMHSLPDMDPGSSSSLDPSLAGCGGDGSSGSGDAHSWDTLLRKWEPVLRDCLLRNRRQMEVISLRLKLQKLQEDAVENDDYDKAETLQQRLEDLEQEKISLHFQLPSRQPALSSFLGHLAAQVQAALRRGATQQASGDDTHTPLRMEPRLLEPTAQDSLHVSITRRDWLLQEKQQLQKEIEALQARMFVLEAKDQQLRREIEEQEQQLQWQGCDLTPLVGQLSLGQLQEVSKALQDTLASAGQIPFHAEPPETIRSLQERIKSLNLSLKEITTKVCMSEKFCSTLRKKVNDIETQLPALLEAKMHAISGNHFWTAKDLTEEIRSLTSEREGLEGLLSKLLVLSSRNVKKLGSVKEDYNRLRREVEHQETAYETSVKENTMKYMETLKNKLCSCKCPLLGKVWEADLEACRLLIQSLQLQEARGSLSVEDERQMDDLEGAAPPIPPRLHSEDKRKTPLKVLEEWKTHLIPSLHCAGGEQKEESYILSAELGEKCEDIGKKLLYLEDQLHTAIHSHDEDLIQSLRRELQMVKETLQAMILQLQPAKEAGEREAAASCMTAGVHEAQA
binds | – | – | DISC1 fragment, residues 1-350 (domain or fragment, UniProt Q9NRI5 1-350) MPGGGPQGAPAAAGGGGVSHRAGSRDCLPPAACFRRRRLARRPGYMRSSTGPGIGFLSPAVGTLFRFPGGVSGEESHHSESRARQCGLDSRGLLVRSPVSKSAAAPTVTSVRGTSAHFGIQLRGGTRLPDRLSWPCGPGSAGWQQEFAAMDSSETLDASWEAACSDGARRVRAAGSLPSAELSSNSCSPGCGPEVPPTPPGSHSAFTSSFSFIRLSLGSAGERGEAEGCPPSREAESHCQSPQEMGAKAASLDGPHEDPRCLSRPFSLLATRVSADLAQAARNSSRPERDMHSLPDMDPGSSSSLDPSLAGCGGDGSSGSGDAHSWDTLLRKWEPVLRDCLLRNRRQMEV

Source: article PMC4346799
